# Laboratory results: PubChem BioAssay AID504795 (Drosophila RNAi Screening Center, 2011)
# Assay: 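Fly genes whose loss alters neurite growth or neural cell form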 (primary screen)
# Cells: primary Drosophila neurons and glia
# Knock-down reagent: long dsRNA against Drosophila genes, 250 ng dsRNA per well
# Timing: one week
# Detection: 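Descriptive morphology terms assigned by visual inspection of live automated images of GFP-marked cells, taken one week after adding 250 ng dsRNA per well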
# This is not the whole library: the list holds selected reagents. 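Every listed dsRNA shows some phenotype; how reagents were selected for listing is not stated.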 Names joined by + are all predicted targets of the reagent.
gene,amplicon,"phenotype seen, replicate 1","phenotype seen, replicate 2"
ZAP3,DRSC17853,too many neurite branches,
Ccdc39,DRSC12286,abnormal cell clusters,
Rs1,DRSC05945,axon bundles split apart,
CG34354,DRSC14515,reduced axon outgrowth,
CG34354,DRSC14558,axon bundles split apart,
CG34354,DRSC15645,sheet-like cell extensions,
E5,DRSC16585,axon bundles split apart,
CG12828,DRSC06177,abnormal cell clusters,
CG15083,DRSC06514,abnormal cell clusters,
CG4168,DRSC01447,reduced axon outgrowth,
CG4168,DRSC21319,axon bundles split apart,
Impbeta11,DRSC07525,fewer cells,
nrm,DRSC11897,too many neurite branches,
CG3594,DRSC04393,abnormal cell clusters,
CG11035,DRSC14287,abnormal cell clusters,
CG12914,DRSC06229,too many neurite branches,
VhaAC39-1,DRSC18242,abnormal cell clusters,
zetaCOP,DRSC11412,reduced axon outgrowth,
Wnk,DRSC11813,abnormal cell clusters,
CG32100,DRSC09725,reduced axon outgrowth,
CG4325,DRSC18516,too many neurite branches,
CG31549,DRSC21688,axon bundles split apart,
CG5079,DRSC15713,cell fragments present,
fd59A,DRSC04685,too many neurite branches,
Pits,DRSC19385,axon bundles split apart,
Lmx1a,DRSC10275,axon bundles split apart,beaded; swollen axons
Grx1t,DRSC04530,too many neurite branches,
Skp2 + CG1103,DRSC22356,too many neurite branches,
CG11811,DRSC09862,axon bundles split apart,
lbl,DRSC16986,abnormal cell clusters,
elB,DRSC03527,cell fragments present,
snRNP-U1-70K,DRSC03612,reduced axon outgrowth,
Dh44,DRSC16409,axon bundles split apart,
CG7377,DRSC10830,cell fragments present,
Ent3,DRSC09822,abnormal cell clusters,
Map205,DRSC16732,cell fragments present,
Irp-1B,DRSC16720,too many neurite branches,
RpL6,DRSC14323,too many neurite branches,
RpL6,DRSC22384,too many neurite branches,axon bundles split apart
CG13436,DRSC06396,abnormal cell clusters,
CG15308,DRSC17995,axon bundles split apart,
AttB,DRSC06734,axon bundles split apart,
sigmar,DRSC04449,axon bundles split apart,
Nprl2,DRSC20153,too many neurite branches,

5 entries from above, set out differently.
{"gene": "Ent3", "amplicon": "DRSC09822", "phenotype seen, replicate 1": "abnormal cell clusters"}
{"gene": "Map205", "amplicon": "DRSC16732", "phenotype seen, replicate 1": "cell fragments present"}
{"gene": "Irp-1B", "amplicon": "DRSC16720", "phenotype seen, replicate 1": "too many neurite branches"}
{"gene": "RpL6", "amplicon": "DRSC14323", "phenotype seen, replicate 1": "too many neurite branches"}
{"gene": "RpL6", "amplicon": "DRSC22384", "phenotype seen, replicate 1": "too many neurite branches", "phenotype seen, replicate 2": "axon bundles split apart"}
